Molecules are shown by their SMILES. ± gives the standard deviation of the averaged measurements. Some of the results follow. Repeats are few or missing, and single values can be far off.

The assay deals with RAW 264.7 macrophages infected with S. aureus JE2-lux. In words: host macrophage viability (CellTiter-Fluor) relative to DMSO vehicle; higher = more viable host cells. Conditions: 10 µM; treatment time 4 h; gentamicin 50 µg/ml.
Regarding `COC(=O)c1[nH]c(C)c(C(=O)C2=C(O)C(=O)N(CCN(C)C)C2c2ccncc2)c1C` (centres undefined), the host macrophage viability was found to be 106%.

As to `Cc1nonc1CC(=O)NCCn1nc2c(C)cc3ccccc3n2c1=O`, the host macrophage viability amounted to 118%.

With `O=C(CSc1nc(=O)[nH]c2c1CCC2)c1ccc(F)cc1`, the host macrophage viability worked out at 110%.

As to `O=c1[nH]c(=O)c2cc(S(=O)(=O)Nc3ccccc3-c3ccccc3)ccc2[nH]1`, the host macrophage viability stood at 95.2%.

In the case of `O=C(NCc1ccccc1)C(c1cccs1)N(C(=O)c1ccccn1)c1ccccc1F` (centres undefined), the host macrophage viability is 107%.

For `Cn1c(=O)c2c(SCC(=O)Nc3ccc(F)cc3)nc(-c3cccs3)nc2n(C)c1=O`, the host macrophage viability was found to be 107 ± 8.3%.

As to `CCOc1ccc(S(=O)(=O)N2CCN(c3cc(Nc4ccc(C)cc4)nc(C)n3)CC2)cc1`, the host macrophage viability was 109%.

Consider `O=C(N/N=C\c1cccnc1)c1n[nH]c2c1CCCC2`, for which the host macrophage viability was 98.7%.

`Cc1c(NC(=O)CN2C(=O)C(=O)c3ccccc32)c(=O)n(-c2ccccc2)n1C`: the host macrophage viability amounted to 119%.

Regarding `COc1cc(C(=O)Nc2c[nH]c3ccccc23)c2ccccc2n1`, the host macrophage viability stood at 104%.

Take `COc1ccc(-c2csc3ncnc(NCCCO)c23)cc1`: the host macrophage viability stood at 104%.

Regarding `CN1CCOc2ccc(NC(=O)c3ccc(F)cc3)cc2C1=O`, the host macrophage viability turned out to be 123%.

Take `CCCCOc1ccc(CNC(=O)C2CCN(c3ccc4nnc(C)n4n3)CC2)cc1`: the host macrophage viability came to 116%.

Regarding `COc1ccc(C(=O)Nc2nc(CC(=O)NCc3cccnc3)cs2)cc1`, the host macrophage viability came to 110%.

As for `COc1ccc(Cl)cc1NS(=O)(=O)c1cc2c3c(c1)C(C)C(=O)N3CCC2` (centres undefined), the host macrophage viability stood at 110%.

With `Cc1cccc2c(C(=O)Nc3cccc(C(=O)N4CCCCC4)c3)cc(O)nc12`, the host macrophage viability came out at 102%.

As for `Cc1cnn(Cc2ccccc2)c1NC(=O)c1ncoc1-c1ccc(F)cc1`, the host macrophage viability amounted to 128%.

With `Brc1cccc2sc(N3CCOCC3)nc12`, the host macrophage viability was 112 ± 15%.

As to `CC(=O)Nc1ccc(C(O)CN2CCC3(CC2)CC(O)c2cc(C)c(C)cc2O3)cc1` (centres undefined), the host macrophage viability was 109%.

Turning to `Cc1ccc2c(c1)/C(=N/NC(=O)CCCCCC(=O)N/N=C1/C(=O)Nc3ccc(C)cc31)C(=O)N2`, the host macrophage viability worked out at 119%.

For the molecule `O=C1CC(c2nc3ccccc3[nH]2)CN1c1cccc(C(F)(F)F)c1` (centres undefined), the host macrophage viability amounted to 124 ± 17%.

In the case of `Cc1nc(OCC(=O)NC2CCS(=O)(=O)C2)c2c(C)c(C)oc2n1` (centres undefined), the host macrophage viability came to 129%.

With `Cc1oc(-c2ccno2)cc1S(=O)(=O)N1CCN(c2ccc(F)cc2)CC1`, the host macrophage viability was determined as 109%.

As to `CC1CN(C(=O)Cn2cnc3c(cnn3-c3cccc(Cl)c3)c2=O)CC(C)O1` (centres undefined), the host macrophage viability was found to be 120%.

Regarding `CCOC(=O)C1=C(C)N=c2s/c(=C3\C(=O)Nc4ccccc43)c(=O)n2C1c1cccs1` (centres undefined), the host macrophage viability turned out to be 91.1%.

With `COc1ccc(-c2nn(Cc3ccc(C)cc3)c(=O)c3noc(C)c23)cc1`, the host macrophage viability amounted to 98.5%.

Turning to `Cc1nn(Cc2noc(-c3cc4ccccc4[nH]3)n2)c(C)c1S(=O)(=O)N1CCCC1`, the host macrophage viability worked out at 86.7%.

In the case of `Cc1cccn2c(=O)nc(SCC(=O)N(C(C)C)C(C)C)nc12`, the host macrophage viability was found to be 120%.

For the molecule `O=C(COc1ccccc1)Nc1ccc(-c2cn3ccccc3n2)cc1`, the host macrophage viability worked out at 133%.

`COc1ccc(CN2CC3=C(C2=O)C(c2ccc(Cl)cc2)NC(=O)N3)cc1` (centres undefined): the host macrophage viability was determined as 101%.

As for `Cc1cc2nnc(SCC(=O)Nc3ccc4c(c3)OCO4)n2c2ccccc12`, the host macrophage viability worked out at 119%.

On to `CCOc1ccc(C)cc1S(=O)(=O)Nc1ccc2c(c1)C(=O)Nc1ccccc1O2`, for which the host macrophage viability is 114%.

For `O=C(OC(C(=O)NCc1ccc(F)cc1)c1ccc2ncccc2c1)c1cccs1` (centres undefined), the host macrophage viability amounted to 97.6%.

For the molecule `N#C/C(=C/c1ccc(Cl)cc1)C(=O)Nc1sc2c(c1C(N)=O)CCCC2`, the host macrophage viability amounted to 116.3 ± 0.33%.

Consider `O=c1c2cnn(CCO)c2ncn1Cc1ccccc1Cl`, for which the host macrophage viability is 117%.

Consider `CCOc1ccc(Cn2c(=O)c3sccc3n3c(=S)[nH]nc23)cc1OCC`, for which the host macrophage viability was 103%.

Regarding `COC(=O)c1ccc(CSc2nc(N)c3c4c(sc3n2)CCC4)cc1`, the host macrophage viability is 113%.

Regarding `CCCN1C(=O)/C(=C2\SC(=N)NC2=O)c2cc(Br)ccc21`, the host macrophage viability came to 114%.

On to `Cc1cc(C)c2cc(CNCc3ccccc3C)c3nn(C)c(=O)n3c2c1`, for which the host macrophage viability was found to be 130%.

With `O=C(NC1CCCC1)C(c1ccc2ncccc2c1)N(Cc1cccs1)C(=O)c1ccc(O)cc1` (centres undefined), the host macrophage viability is 110%.

On to `COc1cccc(CNC(=O)CSc2nnc3ccc(C(=O)NCc4ccccc4)cn23)c1`, for which the host macrophage viability amounted to 122%.

Take `O=C(COc1ccc(Cl)cc1Cl)Nc1nnc2n1CCS2`: the host macrophage viability turned out to be 116%.

In the case of `COc1ccc(-c2nnc(Nc3ccc4c(c3)OCO4)[nH]c2=O)cc1`, the host macrophage viability worked out at 113%.

`Cc1ccc(S(=O)(=O)n2nc(-c3ccc(C)c(C)c3)nc2N)cc1`: the host macrophage viability turned out to be 93.2%.

Turning to `CCc1ccc(Nc2nc(C)c3ncn(-c4ccc(CC)cc4)c3n2)cc1`, the host macrophage viability amounted to 102%.

On to `COCCn1c(SCC(=O)Nc2nccs2)nnc1-c1c[nH]c2ccccc12`, for which the host macrophage viability stood at 105 ± 9.2%.

As to `O=C(c1ccc(-c2nc(-c3ccccc3)no2)cc1)N1CCn2c1nc1ccccc12`, the host macrophage viability stood at 89.8%.

As for `CC(C(=O)N1CCOCC1)C1CCN(C(=O)c2cc3ccccc3[nH]2)CC1` (centres undefined), the host macrophage viability turned out to be 97.3%.

For the molecule `N#Cc1cc2cc3c(cc2nc1SCC(=O)NCC1CCCO1)OCCO3` (centres undefined), the host macrophage viability stood at 145%.

For the molecule `CCc1c(C)nc(SCC(=O)Nc2cc(C)on2)[nH]c1=O`, the host macrophage viability was determined as 96.7%.

Consider `CCOC(=O)c1sc(NC(=O)c2cccc(C)c2)cc1C`, for which the host macrophage viability was determined as 123 ± 9.6%.

In the case of `Cn1c(SCC(=O)Nc2nc3ccccc3s2)nnc1-c1ccccc1`, the host macrophage viability worked out at 103%.

`Cc1ccc(NC(=O)CCN2C(=O)/C(=C\c3ccco3)SC2=S)c(C)c1`: the host macrophage viability is 111%.

Turning to `O=C(CSc1nc(=O)n(CC2CCCO2)c2c1CCCC2)Nc1ccc([N+](=O)[O-])cc1` (centres undefined), the host macrophage viability came to 104%.

As to `Brc1ccc(-c2csc3ncnc(N4CCCCC4)c23)cc1`, the host macrophage viability worked out at 67.8%.

Regarding `CCOC(=O)c1ccccc1Nc1nc(C)nc2c1CCC2`, the host macrophage viability was 97.1%.

For the molecule `O=c1cc(CO)oc(C(Nc2ccccn2)c2cccc(F)c2)c1O` (centres undefined), the host macrophage viability was 102%.

`COc1cccc2sc(NC(=O)c3ccc(N4C(=O)CCC4=O)cc3)nc12`: the host macrophage viability worked out at 117%.

Turning to `NC(=O)c1c(NC(=O)C2=COCCO2)sc2c1CCCCC2`, the host macrophage viability is 104%.

For `COc1cc2cc(C#N)c(SCC(=O)NCc3ccco3)nc2cc1OC`, the host macrophage viability turned out to be 120%.

For `Cn1c(=O)c2c(nc(SCCN3CCCCC3)n2Cc2ccc(Cl)cc2)n(C)c1=O`, the host macrophage viability came out at 96.2%.

As to `CS(=O)(=O)c1cc([N+](=O)[O-])c(Sc2nc3ccccc3o2)c([N+](=O)[O-])c1`, the host macrophage viability is 78.5%.

For `O=C(O)c1nc(N2CCCCC2)c2c(-c3ccccc3F)noc2n1`, the host macrophage viability is 75.3%.

As to `COc1cc(C(=O)Nc2nc3c(ccc4ccccc43)s2)cc(OC)c1OC`, the host macrophage viability amounted to 134%.

On to `O=C(Nc1nc2c(s1)CCC2)c1cccc(NS(=O)(=O)c2ccc(F)cc2)c1`, for which the host macrophage viability was found to be 110%.

Take `CCOC(=O)CC(NC(=O)NCc1ccnc(N2CCSCC2)c1)c1ccccc1` (centres undefined): the host macrophage viability came out at 93.7%.

With `COc1cc(Cl)c(NS(=O)(=O)c2cc(-c3cc(C)no3)cs2)c(OC)c1`, the host macrophage viability came out at 110%.

On to `O=C1COc2ccc(S(=O)(=O)N3CCC(NC(=O)C4CCCC4)CC3)cc2N1`, for which the host macrophage viability is 109%.

Turning to `Cc1nnc(NC(=O)c2ccccc2C(F)(F)F)s1`, the host macrophage viability amounted to 119%.

Take `CCc1ccc(CNC(=O)c2cc3c(=O)n(Cc4cccnc4)ccc3nc2C)cc1`: the host macrophage viability is 113%.

Take `CN1C(=O)N(CC(=O)NCc2ccccc2F)c2cccnc2N1C`: the host macrophage viability was found to be 129%.

`CC(C)CC(=O)N1CCC(c2nnc(C(=O)Nc3cccc(Cl)c3)s2)CC1`: the host macrophage viability was 117%.

As to `C#CCn1/c(=N/C(=O)COc2ccc(Cl)cc2Cl)sc2cc(S(N)(=O)=O)ccc21`, the host macrophage viability was 108%.

For `Cc1ccccc1Cn1cc(S(=O)(=O)c2ccc(F)cc2)c(=O)c2cc3c(cc21)OCO3`, the host macrophage viability was 138%.

Regarding `Cc1ccc(C)c(S(=O)(=O)N2CCCC2CNC(=O)C(=O)NCc2cccnc2)c1` (centres undefined), the host macrophage viability stood at 113%.

For `O=C(c1cc(-c2cccs2)on1)N(Cc1cccc(Cl)c1)C1CCS(=O)(=O)C1` (centres undefined), the host macrophage viability was found to be 109%.

As to `CCOC(=O)c1ccc(Oc2ncnc3sc4c(c23)CCCCC4)cc1`, the host macrophage viability was 125%.

In the case of `Cc1ccc2ncc(NC(=O)N3CCn4cnnc4C3)c(O)c2c1`, the host macrophage viability was 128%.

Regarding `COC(=O)c1c(NC(=O)CC2Sc3ccccc3NC2=O)sc(C)c1C` (centres undefined), the host macrophage viability is 120%.

With `O=C(Nc1cccc(-c2ccc3nncn3n2)c1)c1ccc(Cl)nc1`, the host macrophage viability is 120%.

For the molecule `CC(CCc1ccccc1)NC(=O)C1CCCN(c2nccnc2Oc2ccccc2)C1` (centres undefined), the host macrophage viability was determined as 100%.

Consider `CCOc1ccc2cc(C#N)c(SCC(=O)NCCc3ccccc3)nc2c1`, for which the host macrophage viability worked out at 111%.

Consider `COc1ccc(NC(=O)N2CCC(c3nc4ccccc4o3)CC2)cc1`, for which the host macrophage viability was determined as 99.7%.

Regarding `CCN(CCCNC(=O)c1c(-c2ccccc2)nnc2ccc(C)cc12)c1ccccc1`, the host macrophage viability came to 108%.

Consider `COCCOC(=O)Cn1nc2c3c(C)c(C)sc3nc(C)n2c1=O`, for which the host macrophage viability is 113%.

For `Cc1nc(NC(=O)CSc2nc3ccccc3n2CC(=O)NC(C)(C)C)sc1C`, the host macrophage viability was found to be 98.5%.

Regarding `Cc1cc(SCc2ccccc2F)nc(=O)[nH]1`, the host macrophage viability was determined as 114%.

Consider `COc1cccc(NC(=O)CSc2nccn(-c3ccc(OC)c(Cl)c3)c2=O)c1`, for which the host macrophage viability was found to be 131%.

As to `COCCNC(=O)C(=O)Nc1ccc2c(c1)CCCN2C(=O)c1cccs1`, the host macrophage viability stood at 105%.

For `O=C(CS(=O)(=O)c1c[nH]c2ccccc12)NC1CCCCC1`, the host macrophage viability is 112%.

In the case of `CN1CCc2cc(C(CNC(=O)Cc3ccc(-c4ccccc4)cc3)N3CCOCC3)ccc21` (centres undefined), the host macrophage viability was found to be 111%.

On to `CC(CCc1ccccc1)NC(=O)c1ncoc1-c1ccccc1F` (centres undefined), for which the host macrophage viability worked out at 108%.

Take `O=C(NCC1CCCO1)C(=O)Nc1cc2c3c(c1)CCC(=O)N3CCC2` (centres undefined): the host macrophage viability was 118%.

Regarding `COc1cccc(-n2c(=O)[nH]c3c(C(N)=O)nc(-c4ccccc4Cl)nc32)c1`, the host macrophage viability amounted to 139%.

Regarding `CCOc1ccc(-n2c(C)c(C)c3c2ncn2ncnc32)cc1`, the host macrophage viability is 104%.

On to `Cc1cc2oc(C(=O)Nc3ccccc3F)c(C)c2cc1C`, for which the host macrophage viability was 132%.

On to `CNS(=O)(=O)c1cc(-c2cc(C(=O)Nc3ccc(C(C)C)cc3)n[nH]2)ccc1OC`, for which the host macrophage viability stood at 106%.

Take `COc1ccc(C(=O)Nc2sc3c(c2C(N)=O)CC(C)CC3)cc1OC` (centres undefined): the host macrophage viability was 114%.

In the case of `Cc1nn2c(C(F)(F)F)cc(-c3ccncc3)nc2c1-c1ccc(Cl)cc1`, the host macrophage viability was determined as 124%.

With `Cc1cc(NC(=O)Cc2ccccc2)nc2c1c(=O)oc1ccccc12`, the host macrophage viability stood at 124%.

On to `Cc1ccc(NC(=O)c2cnc3n(c2=O)CCS3)c(Br)c1`, for which the host macrophage viability was 99.3%.

In the case of `COCCCn1c(-c2ccc(Br)cc2)nc(=S)c2c1CCCC2`, the host macrophage viability stood at 105%.

On to `O=C(NNC(=O)c1cc2ccccc2oc1=O)c1ccccc1`, for which the host macrophage viability was determined as 107 ± 16%.

In the case of `Cc1ccc(Nc2c(C(=O)N3CCN(c4cccc(Cl)c4)CC3)cnc3c2c(C)nn3C)cc1`, the host macrophage viability stood at 109%.
